Our source for the log2 fold change values is the supplement of paper PMC12819154, “High-throughput peptide-centric local stability assay extends protein–ligand identification to membrane proteins, tissues and bacteria” (Nature Structural & Molecular Biology, 2025).

Amino acid sequences for entries named in this document (tags omitted). A change or cut given only in a name is not applied to a line headed by its entry.
UniProt Q99KC8: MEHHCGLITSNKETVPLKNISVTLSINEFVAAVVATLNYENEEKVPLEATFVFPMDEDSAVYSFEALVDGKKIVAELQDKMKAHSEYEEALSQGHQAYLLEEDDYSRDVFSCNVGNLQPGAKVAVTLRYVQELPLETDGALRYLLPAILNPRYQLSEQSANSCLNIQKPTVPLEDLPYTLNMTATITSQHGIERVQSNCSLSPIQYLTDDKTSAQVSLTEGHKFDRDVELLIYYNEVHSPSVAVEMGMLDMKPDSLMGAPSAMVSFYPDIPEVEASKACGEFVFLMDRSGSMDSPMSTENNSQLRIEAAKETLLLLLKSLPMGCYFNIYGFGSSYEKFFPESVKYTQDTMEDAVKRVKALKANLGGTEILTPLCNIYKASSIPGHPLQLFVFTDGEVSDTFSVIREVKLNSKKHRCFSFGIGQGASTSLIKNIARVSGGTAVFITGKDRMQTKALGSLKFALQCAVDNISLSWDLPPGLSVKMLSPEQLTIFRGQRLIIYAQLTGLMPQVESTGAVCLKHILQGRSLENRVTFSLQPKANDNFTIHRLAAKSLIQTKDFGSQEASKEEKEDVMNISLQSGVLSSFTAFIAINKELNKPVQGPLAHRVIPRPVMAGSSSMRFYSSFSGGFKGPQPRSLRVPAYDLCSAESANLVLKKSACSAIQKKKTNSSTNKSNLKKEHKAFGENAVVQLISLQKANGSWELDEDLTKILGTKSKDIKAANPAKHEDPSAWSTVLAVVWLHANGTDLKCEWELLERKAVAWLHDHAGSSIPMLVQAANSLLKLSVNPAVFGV
UniProt Q99JY3: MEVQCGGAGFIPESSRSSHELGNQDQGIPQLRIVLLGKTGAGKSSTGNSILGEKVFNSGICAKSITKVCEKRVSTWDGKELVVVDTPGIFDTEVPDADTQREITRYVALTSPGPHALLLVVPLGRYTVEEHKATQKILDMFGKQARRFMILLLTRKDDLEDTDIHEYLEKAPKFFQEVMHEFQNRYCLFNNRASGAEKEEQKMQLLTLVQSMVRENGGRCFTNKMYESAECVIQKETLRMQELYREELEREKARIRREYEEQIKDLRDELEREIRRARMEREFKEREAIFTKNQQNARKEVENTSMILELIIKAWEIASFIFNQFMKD
UniProt Q99JY8: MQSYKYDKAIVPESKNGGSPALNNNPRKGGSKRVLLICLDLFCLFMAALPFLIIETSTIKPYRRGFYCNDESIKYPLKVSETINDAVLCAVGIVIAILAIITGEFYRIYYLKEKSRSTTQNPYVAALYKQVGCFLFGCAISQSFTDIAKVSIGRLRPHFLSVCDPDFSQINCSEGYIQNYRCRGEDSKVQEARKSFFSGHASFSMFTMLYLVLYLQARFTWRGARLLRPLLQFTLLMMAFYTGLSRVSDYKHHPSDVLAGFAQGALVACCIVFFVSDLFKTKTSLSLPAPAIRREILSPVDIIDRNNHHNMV
UniProt Q921R7: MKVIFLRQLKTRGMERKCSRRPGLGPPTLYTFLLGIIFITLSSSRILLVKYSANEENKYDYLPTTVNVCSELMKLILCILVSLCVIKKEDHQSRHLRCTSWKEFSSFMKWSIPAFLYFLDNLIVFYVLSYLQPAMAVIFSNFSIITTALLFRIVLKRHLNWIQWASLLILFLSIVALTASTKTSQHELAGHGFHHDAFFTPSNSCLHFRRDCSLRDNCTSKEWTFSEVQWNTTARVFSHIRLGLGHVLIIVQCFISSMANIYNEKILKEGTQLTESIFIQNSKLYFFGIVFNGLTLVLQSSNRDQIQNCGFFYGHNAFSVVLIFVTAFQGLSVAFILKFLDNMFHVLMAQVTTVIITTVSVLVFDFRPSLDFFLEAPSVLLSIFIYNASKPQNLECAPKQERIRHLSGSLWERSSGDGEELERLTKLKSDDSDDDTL
UniProt Q923W1: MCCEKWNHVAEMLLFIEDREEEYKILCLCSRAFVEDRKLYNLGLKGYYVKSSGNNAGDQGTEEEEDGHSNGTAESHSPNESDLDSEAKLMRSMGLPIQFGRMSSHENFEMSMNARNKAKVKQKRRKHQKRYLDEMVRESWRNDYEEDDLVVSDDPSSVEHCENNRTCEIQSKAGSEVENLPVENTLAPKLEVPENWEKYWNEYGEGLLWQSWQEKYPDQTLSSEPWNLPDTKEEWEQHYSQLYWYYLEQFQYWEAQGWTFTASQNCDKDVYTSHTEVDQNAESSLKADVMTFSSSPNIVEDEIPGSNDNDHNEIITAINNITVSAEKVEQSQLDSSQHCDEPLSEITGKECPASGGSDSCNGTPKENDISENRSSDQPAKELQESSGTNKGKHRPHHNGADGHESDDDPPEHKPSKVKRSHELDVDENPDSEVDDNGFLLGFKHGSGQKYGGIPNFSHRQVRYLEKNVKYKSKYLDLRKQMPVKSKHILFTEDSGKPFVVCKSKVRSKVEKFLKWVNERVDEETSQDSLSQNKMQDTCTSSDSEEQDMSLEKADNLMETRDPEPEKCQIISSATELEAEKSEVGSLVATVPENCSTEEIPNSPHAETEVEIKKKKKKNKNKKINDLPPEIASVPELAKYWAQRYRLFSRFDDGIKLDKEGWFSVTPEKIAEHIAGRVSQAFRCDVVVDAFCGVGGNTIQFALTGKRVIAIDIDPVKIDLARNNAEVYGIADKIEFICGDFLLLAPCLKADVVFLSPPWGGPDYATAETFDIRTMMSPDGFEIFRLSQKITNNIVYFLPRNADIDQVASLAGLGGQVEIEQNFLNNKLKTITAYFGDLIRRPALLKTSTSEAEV
UniProt Q99KP3: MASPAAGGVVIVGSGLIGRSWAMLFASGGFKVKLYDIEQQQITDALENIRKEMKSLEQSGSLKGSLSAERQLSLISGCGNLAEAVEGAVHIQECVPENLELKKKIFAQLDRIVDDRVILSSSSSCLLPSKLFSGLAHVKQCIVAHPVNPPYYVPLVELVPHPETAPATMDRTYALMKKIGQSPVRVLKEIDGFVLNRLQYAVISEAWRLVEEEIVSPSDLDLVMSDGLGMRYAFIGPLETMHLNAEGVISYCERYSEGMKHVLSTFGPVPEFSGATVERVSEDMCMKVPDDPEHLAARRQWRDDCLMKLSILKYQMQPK
UniProt Q922X9: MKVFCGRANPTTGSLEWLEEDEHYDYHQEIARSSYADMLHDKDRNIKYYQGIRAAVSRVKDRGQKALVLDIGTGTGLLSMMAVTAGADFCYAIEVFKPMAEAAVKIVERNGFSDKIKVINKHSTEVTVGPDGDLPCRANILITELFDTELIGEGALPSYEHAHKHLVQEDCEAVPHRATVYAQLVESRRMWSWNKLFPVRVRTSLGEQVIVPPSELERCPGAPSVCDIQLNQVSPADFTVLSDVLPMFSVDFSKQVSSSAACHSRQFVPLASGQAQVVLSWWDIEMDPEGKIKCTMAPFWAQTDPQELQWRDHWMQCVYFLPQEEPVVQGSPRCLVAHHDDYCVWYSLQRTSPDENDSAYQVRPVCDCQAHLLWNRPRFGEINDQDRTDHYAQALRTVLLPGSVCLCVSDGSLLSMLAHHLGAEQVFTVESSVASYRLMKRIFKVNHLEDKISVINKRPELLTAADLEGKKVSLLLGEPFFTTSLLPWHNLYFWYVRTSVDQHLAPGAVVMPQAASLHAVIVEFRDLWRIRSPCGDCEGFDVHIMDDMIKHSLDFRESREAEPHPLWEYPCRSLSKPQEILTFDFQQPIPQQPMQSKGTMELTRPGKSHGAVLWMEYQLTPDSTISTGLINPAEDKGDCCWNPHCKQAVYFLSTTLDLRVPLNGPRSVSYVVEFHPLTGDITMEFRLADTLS
UniProt Q99JI1: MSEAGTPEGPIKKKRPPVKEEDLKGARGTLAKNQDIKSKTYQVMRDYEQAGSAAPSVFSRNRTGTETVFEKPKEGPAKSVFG
UniProt Q924H9: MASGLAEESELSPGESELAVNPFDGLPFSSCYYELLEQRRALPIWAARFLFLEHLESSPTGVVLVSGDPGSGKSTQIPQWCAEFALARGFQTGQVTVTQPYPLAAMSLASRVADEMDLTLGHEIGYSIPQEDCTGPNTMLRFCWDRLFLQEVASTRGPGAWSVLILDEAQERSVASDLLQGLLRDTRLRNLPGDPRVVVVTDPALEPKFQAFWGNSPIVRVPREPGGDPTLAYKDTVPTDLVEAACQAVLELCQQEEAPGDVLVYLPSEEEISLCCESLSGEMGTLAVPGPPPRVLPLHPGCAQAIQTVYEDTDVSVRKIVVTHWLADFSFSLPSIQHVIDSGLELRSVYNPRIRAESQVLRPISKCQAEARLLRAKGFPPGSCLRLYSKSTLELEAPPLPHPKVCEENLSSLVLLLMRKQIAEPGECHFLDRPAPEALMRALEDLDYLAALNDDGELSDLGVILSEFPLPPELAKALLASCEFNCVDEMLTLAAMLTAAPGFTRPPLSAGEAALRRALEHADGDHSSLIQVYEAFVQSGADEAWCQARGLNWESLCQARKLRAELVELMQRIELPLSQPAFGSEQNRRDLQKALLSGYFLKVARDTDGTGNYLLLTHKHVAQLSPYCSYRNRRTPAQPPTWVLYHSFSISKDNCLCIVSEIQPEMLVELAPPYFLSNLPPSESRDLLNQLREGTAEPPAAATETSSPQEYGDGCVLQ
UniProt Q922H4: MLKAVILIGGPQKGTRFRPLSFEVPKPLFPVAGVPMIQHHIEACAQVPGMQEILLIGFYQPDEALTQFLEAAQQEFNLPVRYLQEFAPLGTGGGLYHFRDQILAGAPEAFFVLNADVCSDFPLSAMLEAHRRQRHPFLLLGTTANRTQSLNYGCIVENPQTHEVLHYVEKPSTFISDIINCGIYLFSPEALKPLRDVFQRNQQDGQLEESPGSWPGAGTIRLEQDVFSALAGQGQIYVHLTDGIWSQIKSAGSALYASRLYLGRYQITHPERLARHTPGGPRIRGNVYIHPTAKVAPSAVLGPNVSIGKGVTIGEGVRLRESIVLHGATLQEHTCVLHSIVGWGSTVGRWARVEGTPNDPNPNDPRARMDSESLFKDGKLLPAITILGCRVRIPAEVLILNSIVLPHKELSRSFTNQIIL
UniProt Q923B3: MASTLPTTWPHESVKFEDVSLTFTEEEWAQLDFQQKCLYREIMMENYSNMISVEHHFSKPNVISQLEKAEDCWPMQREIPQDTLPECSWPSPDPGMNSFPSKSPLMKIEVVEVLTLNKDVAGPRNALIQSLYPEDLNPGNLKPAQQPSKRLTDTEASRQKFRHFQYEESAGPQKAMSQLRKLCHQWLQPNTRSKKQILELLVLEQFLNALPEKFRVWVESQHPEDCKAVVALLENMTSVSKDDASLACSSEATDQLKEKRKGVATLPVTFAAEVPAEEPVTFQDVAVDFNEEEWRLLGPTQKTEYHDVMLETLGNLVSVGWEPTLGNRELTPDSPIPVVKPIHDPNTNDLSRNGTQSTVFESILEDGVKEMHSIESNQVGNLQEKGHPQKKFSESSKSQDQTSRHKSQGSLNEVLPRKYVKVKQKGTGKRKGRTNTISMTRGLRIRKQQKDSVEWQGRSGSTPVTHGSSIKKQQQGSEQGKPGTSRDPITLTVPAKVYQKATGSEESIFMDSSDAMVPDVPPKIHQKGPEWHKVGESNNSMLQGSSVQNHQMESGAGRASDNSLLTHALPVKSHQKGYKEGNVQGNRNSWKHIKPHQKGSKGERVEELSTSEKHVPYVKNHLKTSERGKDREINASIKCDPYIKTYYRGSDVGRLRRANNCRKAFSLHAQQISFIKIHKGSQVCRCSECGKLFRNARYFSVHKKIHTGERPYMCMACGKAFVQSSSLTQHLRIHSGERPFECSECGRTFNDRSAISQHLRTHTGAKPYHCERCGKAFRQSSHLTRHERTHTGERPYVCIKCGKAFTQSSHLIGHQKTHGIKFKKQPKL
UniProt Q99JH1: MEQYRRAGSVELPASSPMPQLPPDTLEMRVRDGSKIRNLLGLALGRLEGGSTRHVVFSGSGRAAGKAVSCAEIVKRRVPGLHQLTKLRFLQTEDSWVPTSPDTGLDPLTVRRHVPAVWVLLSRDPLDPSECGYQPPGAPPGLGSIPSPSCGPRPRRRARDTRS
UniProt Q99LE6: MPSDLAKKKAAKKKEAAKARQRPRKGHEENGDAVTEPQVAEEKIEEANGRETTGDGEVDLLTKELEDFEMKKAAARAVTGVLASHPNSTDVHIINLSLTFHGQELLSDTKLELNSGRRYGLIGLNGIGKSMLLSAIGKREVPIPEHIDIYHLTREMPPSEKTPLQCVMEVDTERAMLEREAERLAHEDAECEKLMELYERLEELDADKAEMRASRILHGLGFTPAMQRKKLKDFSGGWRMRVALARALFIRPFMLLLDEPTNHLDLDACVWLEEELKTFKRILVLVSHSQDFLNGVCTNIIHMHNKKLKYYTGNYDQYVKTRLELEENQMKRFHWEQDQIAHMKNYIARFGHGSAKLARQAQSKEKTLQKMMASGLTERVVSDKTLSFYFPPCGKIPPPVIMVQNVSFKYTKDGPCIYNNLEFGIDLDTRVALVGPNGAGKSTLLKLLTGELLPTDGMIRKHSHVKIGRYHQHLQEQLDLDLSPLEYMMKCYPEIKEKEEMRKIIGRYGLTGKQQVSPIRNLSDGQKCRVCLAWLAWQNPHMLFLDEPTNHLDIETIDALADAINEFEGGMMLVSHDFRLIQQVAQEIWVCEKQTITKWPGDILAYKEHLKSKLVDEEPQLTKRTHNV

This is one part of the list. Most entries show no effect beyond the scatter of the controls.

Compound in this test: CN[C@@H]1C[C@H]2O[C@@](C)([C@@H]1OC)n1c3ccccc3c3c4c(c5c6ccccc6n2c5c31)C(=O)NC4 [staurosporine]
Briefly: log2 fold change of tryptic peptide abundance, ligand vs vehicle (limited proteolysis) (log2 ratio); higher = more trypsin-susceptible (destabilized). Particulars: ligand concentration: 20 uM; sample: mouse liver crude lysate; replicate design: treated separately.
As to “UniProt Q99KC8 (peptide sequence: ELNKPVQGPLAHR, peptide start residue: 594)”, the log2 fold change was -0.788.
Then “UniProt Q99JP6 (peptide sequence: EANAAATQWR, peptide start residue: 205)”, with -0.302.
“UniProt Q922P9 (peptide sequence: FFGTEDHAWIK, peptide start residue: 46)”: the log2 fold change came out at 0.113.
Then “UniProt Q99JY3 (peptide sequence: RVSTWDGK, peptide start residue: 72)”, with -0.325; and “UniProt Q920N2 (peptide sequence: LQMDNGLIAQK, peptide start residue: 5)”, with 0.207; and “UniProt Q99JY8 (peptide sequence: REILSPVDIIDR, peptide start residue: 294)”, with 0.561.
Then “UniProt Q921R7 (peptide sequence: HLSGSLWER, peptide start residue: 405)”, with -0.00971.
Then “UniProt Q99KN9 (peptide sequence: SLENYHFVDEHGKDQGINIR, peptide start residue: 118)”, with -0.665; and “UniProt Q99J09 (peptide sequence: KDTPPPLVPPAAR, peptide start residue: 3)”, with 0.122; and “UniProt Q99J93 (peptide sequence: TTVINMPR, peptide start residue: 43)”, with -0.0388.
In the case of “UniProt Q99J64 (peptide sequence: QALEELGGRYPR, peptide start residue: 297)”, the log2 fold change was -0.35.
Then “UniProt Q922E4 (peptide sequence: RPYVIAGLHFDQEVNR, peptide start residue: 260)”, with 0.306; and “UniProt Q923W1 (peptide sequence: YLDEMVR, peptide start residue: 131)”, with 0.135.
Then “UniProt Q99KP3 (peptide sequence: VSEDMCMKVPDDPEHLAAR, peptide start residue: 280)”, with 0.218; and “UniProt Q922X9 (peptide sequence: SSYADMLHDKDR, peptide start residue: 33)”, with -0.541; and “UniProt Q99LE1 (peptide sequence: FTLQELR, peptide start residue: 297)”, with 0.146.
To “UniProt Q99KR3 (peptide sequence: MAEHNLLLHLR, peptide start residue: 256)” belongs 0.104; to “UniProt Q99JI1 (peptide sequence: NRTGTETVFEKPK, peptide start residue: 61)”, 0.119.
“UniProt Q924H9 (peptide sequence: VVVVTDPALEPK, peptide start residue: 197)”: the log2 fold change came out at 0.238.
To “UniProt Q99JI4 (peptide sequence: PLENLEEEGLPKNPDLR, peptide start residue: 2)” belongs -0.498.
“UniProt Q99LI7 (peptide sequence: ETALLVDR, peptide start residue: 520)”: the log2 fold change was -0.244.
To “UniProt Q91ZW2 (peptide sequence: DGTAGSHFMASPQCVGYSR, peptide start residue: 259)” belongs 0.314.
To “UniProt Q924C1 (peptide sequence: FFGILYENCYHILGK, peptide start residue: 839)” belongs -0.324; to “UniProt Q924W5 (peptide sequence: GLLQAYCCHNHADER, peptide start residue: 535)”, 0.203; to “UniProt Q922H4 (peptide sequence: AVILIGGPQK, peptide start residue: 4)”, -0.385.
With “UniProt Q923B3 (peptide sequence: VEELSTSEK, peptide start residue: 605)”, the log2 fold change is -0.106.
To “UniProt Q99JH1 (peptide sequence: NLLGLALGR, peptide start residue: 38)” belongs -0.317.
Then “UniProt Q99KB8 (peptide sequence: VYCGHEYTVNNLK, peptide start residue: 218)”, with -0.213.
To “UniProt Q921M4 (peptide sequence: FLEVMQEK, peptide start residue: 809)” belongs 0.206; to “UniProt Q923T7 (peptide sequence: LYCQDDGR, peptide start residue: 138)”, 0.238; to “UniProt Q99LE6 (peptide sequence: TRLELEENQMKR, peptide start residue: 321)”, -0.554.
